One molecule from paper PMC8225760, “Residue 6.43 defines receptor function in class F GPCRs” (Nature Communications, 2021) can be followed below.

This assay deals with T1, SNAP-FZD6 (wild-type) (UniProt O60353).
T1 sequence: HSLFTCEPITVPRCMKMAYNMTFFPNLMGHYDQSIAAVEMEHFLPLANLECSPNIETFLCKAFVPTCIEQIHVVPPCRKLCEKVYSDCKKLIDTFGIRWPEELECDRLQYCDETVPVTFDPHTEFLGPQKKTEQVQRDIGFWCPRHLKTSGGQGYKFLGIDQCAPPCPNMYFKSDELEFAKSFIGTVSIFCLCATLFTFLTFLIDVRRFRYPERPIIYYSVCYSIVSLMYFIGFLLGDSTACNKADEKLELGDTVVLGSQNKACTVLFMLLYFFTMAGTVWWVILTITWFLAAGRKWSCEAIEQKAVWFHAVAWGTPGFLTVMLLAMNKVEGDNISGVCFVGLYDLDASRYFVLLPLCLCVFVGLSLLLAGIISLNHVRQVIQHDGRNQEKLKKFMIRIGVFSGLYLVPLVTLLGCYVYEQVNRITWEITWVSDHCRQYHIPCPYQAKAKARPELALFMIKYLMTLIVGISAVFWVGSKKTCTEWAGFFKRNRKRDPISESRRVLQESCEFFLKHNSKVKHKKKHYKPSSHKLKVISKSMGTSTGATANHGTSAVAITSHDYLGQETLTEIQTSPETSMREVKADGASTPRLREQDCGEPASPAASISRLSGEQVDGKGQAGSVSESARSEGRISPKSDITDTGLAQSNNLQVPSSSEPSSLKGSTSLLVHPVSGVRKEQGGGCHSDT
Nature of the assay: FRET or BRET; bystander BRET between Nluc-DEP and Venus-KRas in living ΔFZD1-10 HEK293T cells with 0-480 ng SNAP-tagged receptor plasmid; BRET plotted over the SNAP surface signal; in the presence of C59. A general note: In BRET a luciferase serves as donor, and the signal depends on an acceptor being close.

These are yes or no findings as the source states them, for the method shown. In cells and extracts the contact can be indirect. Some entries that bind do so weakly or less than the wild type. Where a sequence is shown, tags or fusion partners need not be part of it.

B1: Nluc-DEP (Nluc-tagged DEP domain of DVL2) (domain or fragment, UniProt O14641 433-507)
chain: PESGLEVRDRMWLKITIPNAFLGSDVVDWLYHHVEGFPERREARKYASGLLKAGLIRHTVNKITFSEQCYYVFGD
In the case of B1, the binding entry is listed as “binds”.
